{"source": "PubChem BioAssay AID1347075", "about": "(National Center for Advancing Translational Sciences (NCATS), 2019)", "note": "The whole screen tested about 400,000 compounds, of which about 5,500 (1.4%) were called active. Inconclusive means that the source gave no clear call. Such entries were picked first, then a sample of the others. Calls follow the shape of the dose curve; as a rule, active = well fitted cell-killing curve with a large enough effect; inconclusive = small, poorly fitted or top-dose-only effect, or effect the other way; inactive = flat fitted curve, though single readings scatter. A potency beside an inconclusive call is a rough fit, not a confirmed value. % is scaled to controls: 0 for no effect and ±100 for the full control effect; potency is read from the fitted curve at half-maximal effect."}
{"experiment": "qHTS assay for MDR1-selective chemotherapeutics: Primary screen using the parental adenocarcinoma cell KB-3-1; also: nearly all actives have a fitted effect of over 60% in size", "conditions": "KB-3-1 viability, CellTiter-Glo ATP luminescence, 72 h; activity change, negative = cytotoxic: at 46.1 µM (top of the series)", "in_short": "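Screening of KB-3-1 cells (DMEM, 10% FBS, phenol-red free) ran from lowest to highest compound concentration; after 72 h at 37 °C viability was read luminescently and curves fitted.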"}
{"smiles": "Cc1ccc(C)c(OCCC(=O)N2CCN(S(=O)(=O)c3ccc([N+](=O)[O-])cc3)CC2)c1", "Potency": "inactive"}
{"smiles": "O=C(O)c1cccc(-c2ccc(/C=C3/SC(=Nc4ccccc4)N(Cc4cccnc4)C3=O)o2)c1", "Potency": "inactive"}
{"smiles": "O=C1Nc2cccnc2N(C(=O)CCl)c2ccccc21", "Potency": "active: 20.6 µM"}
{"smiles": "CC(=O)Nc1ccc(NC(=O)C(C)OC(=O)c2ccc(S(=O)(=O)N3CCCCCC3)cc2)cc1", "note": "(stereo not drawn)", "Potency": "inconclusive: 29.1 µM [cytotoxic, single point]"}
{"smiles": "CC(C)CC(N)c1csc(NC(=O)C(c2ccccc2)c2ccccc2)n1", "note": "(stereo not drawn)", "Potency": "inconclusive: 29.1 µM [cytotoxic, single point]"}
{"smiles": "CC(C)NC(=O)C1CCCN(c2nnc(-n3cccc3)s2)C1", "note": "(stereo not drawn)", "activity change, negative = cytotoxic": "inconclusive: -7.45%"}
{"smiles": "COc1ccc(NC(=O)C2CCN(S(=O)(=O)c3ccc4[nH]c(=O)ccc4c3)CC2)c(OC)c1", "Potency": "inactive"}
{"smiles": "O=C(O)C1CC2C3CC(C(=O)O)C(C3)C2C1", "note": "(stereo not drawn)", "Potency": "inconclusive: 14.6 µM [rising, partial curve, poor fit]"}
{"smiles": "Cc1ccc(-n2c(SCC(=O)N/N=C/c3c(C)nn(-c4ccccc4)c3C)nc3ccccc3c2=O)cc1", "Potency": "inactive"}
{"smiles": "CCc1cccc(-n2c(C)nc3c(cnn3-c3ccc(Cl)cc3)c2=O)c1", "Potency": "inconclusive: 16.4 µM [cytotoxic, single point]"}
{"smiles": "O=C(O)c1cccc(COc2ccccc2Cl)c1", "Potency": "inconclusive: 16.4 µM [cytotoxic, single point]"}
{"smiles": "COC(=O)c1c(C)oc2ccc(N(C(=O)c3ccncc3)S(=O)(=O)c3ccc(C)cc3C)cc12", "Potency": "inconclusive: 29.1 µM [cytotoxic, single point]"}
{"smiles": "N#C/C(=C\\c1ccncc1)c1nc2ccccc2o1", "Potency": "inactive"}
{"smiles": "O=C(Nc1ccc(Cl)cc1)Nc1nnc(CSCc2ccc(Cl)cc2)s1", "Potency": "inconclusive: 20.6 µM [cytotoxic, single point]"}
{"smiles": "COc1cccc(NC(=O)c2ccc(N3C(=O)C4CC=CCC4C3=O)cc2)c1", "note": "(stereo not drawn)", "Potency": "inconclusive: 0.0366 µM [cytotoxic, full curve, poor fit]"}
{"smiles": "CCN(CC)c1ccc(NC(=O)c2ccco2)c(C)c1", "Potency": "inactive"}
{"smiles": "Cc1cc(C)c2nc(-c3ccncc3)cc(C(=O)N3CCN(Cc4ccccc4Cl)CC3)c2c1", "Potency": "inconclusive: 29.1 µM [cytotoxic, single point]"}
{"smiles": "NS(=O)(=O)c1ccc(NC(=S)NC(=O)/C=C/c2ccco2)cc1", "Potency": "inconclusive: 6.51 µM [rising, partial curve, poor fit]"}
{"smiles": "CC1(C)CC2CC(C)(CN2C(=O)c2cc(-c3ccccc3O)on2)C1", "note": "(stereo not drawn)", "Potency": "inconclusive: 16.4 µM [cytotoxic, partial curve, poor fit]"}
{"smiles": "CN=C1CC(SC)=C1c1ccc(C)cc1", "Potency": "inconclusive: 29.1 µM [cytotoxic, single point]"}
{"smiles": "CCOC(=O)C(C)Sc1ccc2nnc(-c3ccc(F)cc3)n2n1", "note": "(stereo not drawn)", "activity change, negative = cytotoxic": "inconclusive: -16.1%"}
{"smiles": "O=C(CCCOc1ccc(Cl)cc1Cl)Nc1ccccc1C(=O)O", "Potency": "inconclusive: 29.1 µM [cytotoxic, single point]"}
{"smiles": "CC(C)(C)n1nnnc1C(CCc1ccccc1)N1CCN(C/C=C/c2ccccc2)CC1", "note": "(stereo not drawn)", "Potency": "inconclusive: 29.1 µM [cytotoxic, single point]"}
{"smiles": "CCOC(=O)c1c(SCCN2CCCC2)n(-c2ccccc2)c(=S)n(-c2ccccc2)c1=O", "Potency": "inactive"}
{"smiles": "Nc1nc2c(-c3ccc(Br)cc3)nnn2c2ccccc12", "Potency": "inactive"}
{"smiles": "CCN(CC)CCNc1ccc(C)c2sc3ccc(O)cc3c(=O)c12", "Potency": "inconclusive: 20.6 µM [cytotoxic, partial curve, poor fit]"}
{"smiles": "CCOCCCNC(=O)/C(C#N)=C/c1cc(OC)c(O)c([N+](=O)[O-])c1", "Potency": "active: 7.31 µM"}
{"smiles": "O=C(Nc1c(F)cccc1F)c1cnc(N2CCN(c3ccccn3)CC2)c2ccccc12", "Potency": "inconclusive: 20.6 µM [cytotoxic, single point]"}
{"smiles": "COc1ccc2c(CC(=O)N[C@@H](Cc3ccccc3)C(=O)O)cc(=O)oc2c1", "Potency": "inactive"}
{"smiles": "CCn1nc(C)c(NC(=O)/C=C/c2cnn(C)c2C)c1C", "Potency": "inconclusive: 23.1 µM [cytotoxic, single point]"}
{"smiles": "CCOC(=O)c1cc(-c2ccccc2)n(-c2cccc(C(=O)Nc3ccc(F)c(F)c3)c2)c1C", "Potency": "inconclusive: 29.1 µM [cytotoxic, single point]"}
{"smiles": "COc1c(C)cc(S(=O)(=O)NCCc2c(C)[nH]c3ccccc23)c(C)c1C", "Potency": "inconclusive: 16.4 µM [cytotoxic, single point]"}
{"smiles": "Cc1cc(Nc2cccc([N+](=O)[O-])c2)n2c(nc3ccccc32)c1C#N", "Potency": "active: 5.17 µM"}
{"smiles": "COC(=O)c1nnn(-c2nc(N3CCOCC3)nc(N3CCOCC3)n2)c1C", "Potency": "inconclusive: 32.6 µM [rising, single point]"}
{"smiles": "CCOC(=O)C1=C(C)N=C2SC=C(C)N2C1c1ccc(OC)cc1", "note": "(stereo not drawn)", "Potency": "inconclusive: 20.6 µM [cytotoxic, single point]"}
{"smiles": "CN(C(=O)COc1ccccc1C(=O)Nc1ccccc1)c1ccccc1", "Potency": "inactive"}
{"smiles": "c1ccc2c(c1)c1c(c3ccccc32)CN2CCCC2C1", "note": "(stereo not drawn)", "Potency": "inconclusive: 29.1 µM [cytotoxic, single point]"}
{"smiles": "COC(=O)c1[nH]c2ccc(C)cc2c1NC(=O)CN1CCCc2ccccc21", "Potency": "inconclusive: 20.6 µM [cytotoxic, partial curve, poor fit]"}
{"smiles": "CC(C)C[C@H](NC(=O)c1nc[nH]c1C(=O)N[C@@H](CCCCNC(=O)OC(C)(C)C)C(=O)OC(C)(C)C)C(=O)OC(C)(C)C", "Potency": "active: 16.4 µM"}
{"smiles": "COc1ccc(OC)c(NC(=S)N2CCN(Cc3ccccc3)CC2)c1", "Potency": "inconclusive: 32.6 µM [cytotoxic, single point]"}
{"smiles": "COc1ccc(Nc2nc(NCc3ccco3)nc(N/N=C/c3ccc(O)cc3)n2)cc1", "Potency": "inconclusive: 18.4 µM [rising, single point]"}
{"smiles": "CCOC(=O)c1c(C)[nH]c(C(=O)N/N=C\\c2ccccc2Cl)c1C", "Potency": "inconclusive: 16.4 µM [cytotoxic, partial curve]"}
{"smiles": "COc1ccc(NC(=O)CSc2nnc(C3CCCCC3)n2N)c(OC)c1", "Potency": "inactive"}
